# Like-named read-outs stand apart in the source and are kept apart here. Some of these results come from one statement about several compounds together.
# The chains behind the UniProt entries cited, without tags or fusion partners. Residues count along the entry.
# UniProt P01375, 77-233 limits assumed: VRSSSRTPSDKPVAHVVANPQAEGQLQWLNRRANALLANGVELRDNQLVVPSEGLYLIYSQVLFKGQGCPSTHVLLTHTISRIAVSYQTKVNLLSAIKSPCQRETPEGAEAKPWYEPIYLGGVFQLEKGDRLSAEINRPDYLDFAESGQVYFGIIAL
# Target: TNFα (Homo sapiens, UniProt P01375)
# Assay: TNF induced HEK-Blue assay (NF-kB-driven secreted alkaline phosphatase reporter)
# Type: cell-based
# Outline: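 HEK-Blue-CD40L cells (NF-kB-driven SEAP reporter), 20,000/well, added after 30 min pre-incubation of compound (0.004–25 μM final) with TNFα 0.5 ng/mL final at 37 °C; 18 h incubation. SEAP read with QUANTI-Blue at 620 nm; IC50 from 4-parameter logistic fit, normalized to unstimulated and stimulated DMSO controls.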
# [1] = TNFα 0.5 ng/mL, HEK-Blue-CD40L cells, 18 h; read-out: IC50 values measured in the TNF induced HEK-Blue assay
Structure (SMILES),IC50 [1],"IC50 (read-out: IC50 values measured in the TNF induced HEK-Blue assay; TNFα 0.5 ng/mL, HEK-Blue-CD40L cells, 18 h)"
"C[C@@H](Nc1c(Cl)cnc2ccc(-c3cnc(C(C)(C)O)nc3)cc12)c1cccc(Br)c1 [Example 319, (R)-2-(5-(4-((1-(3-bromophenyl)ethyl)amino)-3-chloroquinolin-6-yl)pyrimidin-2-yl)propan-2-ol]",≤ 25 µM,–
"Cc1nc2ccc(-c3cnc(C(C)(C)O)nc3)cc2c(N[C@H](C)c2cc(Cc3ccccc3)ccc2F)c1Cl [Example 396, (R)-2-(5-(4-((1-(5-benzyl-2-fluorophenyl)ethyl)amino)-3-chloro-2-methylquinolin-6-yl)pyrimidin-2-yl)propan-2-ol]",≤ 25 µM,–
"Cc1ccnc(C(C)Nc2c(Cl)cnc3ccc(-c4ccc(C(C)(C)O)cc4)cc23)n1 (racemic) [Example 178, 2-(4-(3-chloro-4-((1-(4-methylpyrimidin-2-yl)ethyl)amino)quinolin-6-yl)phenyl)propan-2-ol]",≤ 25 µM,–
"CC(=O)NC[C@@H](C(=O)O)N1CCN(c2ncc(-c3ccc4ncc(Cl)c(N[C@H](C)c5ccccc5F)c4c3)cn2)CC1 [Example 95, (S)-3-acetamido-2-(4-(5-(3-chloro-4-(((R)-1-(2-fluorophenyl)ethyl)amino)quinolin-6-yl)pyrimidin-2-yl)piperazin-1-yl)propanoic acid]",≤ 25 µM,–
"Cc1ccc(C)c(C(C)Nc2c(Cl)cnc3ccc(-c4cnc(C(C)(C)O)nc4)cc23)c1 (racemic) [Example 149, 2-(5-(3-chloro-4-((1-(2,5-dimethylphenyl)ethyl)amino)quinolin-6-yl)pyrimidin-2-yl)propan-2-ol]",≤ 25 µM,–
"C=Cc1ccc(F)c([C@H](Nc2c(Cl)c(C)nc3cc(F)c(-c4cnc(C(C)(C)O)nc4)nc23)C(F)F)c1 [Example 494, (S)-2-(5-(7-chloro-8-((2,2-difluoro-1-(2-fluoro-5-vinylphenyl)ethyl)amino)-3-fluoro-6-methyl-1,5-naphthyridin-2-yl)pyrimidin-2-yl) propan-2-ol]",≤ 25 µM,–
"C[C@@H](Nc1c(Cl)cnc2ccccc12)c1cc(-c2cnc3[nH]ccc3c2)ccc1F [Example 537, (R)-3-chloro-N-(1-(2-fluoro-5-(1H-pyrrolo[2,3-b]pyridin-5-yl)phenyl)ethyl)quinolin-4-amine]",≤ 25 µM,–
"CC(=O)NC1CCC(O)(c2ncc(-c3ccc4ncc(Cl)c(N[C@H](C)c5ccccc5F)c4c3)cn2)CC1 (stereo partly drawn) [Example 131, (R)—N-(4-(5-(3-chloro-4-((1-(2-fluorophenyl)ethyl)amino)quinolin-6-yl)pyrimidin-2-yl)-4-hydroxycyclohexyl)acetamide]",≤ 25 µM,–
"COc1ccc(F)c([C@@H](C)Nc2c(Cl)cnc3ccc(-c4cnc(C(C)(C)O)nc4)cc23)c1 [Example 327, (R)-2-(5-(3-chloro-4-((1-(2-fluoro-5-methoxyphenyl)ethyl)amino)quinolin-6-yl)pyrimidin-2-yl)propan-2-ol]",≤ 25 µM,–
"COc1ncc(-c2ccc(F)c([C@@H](C)Nc3c(Cl)cnc4ccccc34)c2)cc1C#N [Example 520, (R)-5-(3-(1-((3-chloroquinolin-4-yl)amino)ethyl)-4-fluorophenyl)-2-methoxynicotinonitrile]",≤ 25 µM,–
"CC(Nc1c(Cl)cnc2ccc(-c3cnc(C(C)(C)O)nc3)cc12)c1ccccc1F (racemic) [Example 152, 2-(5-(3-chloro-4-((1-(2-fluorophenyl)ethyl)amino)quinolin-6-yl)pyrimidin-2-yl)propan-2-ol]",–,≤ 25 µM
"CCCC(C)C(N)c1c(Cl)c(C)nc2ccc(-c3cnc(C(C)(C)O)nc3)cc12 (single isomer, unassigned) [Example 358, 2-(5-(4-(1-amino-2-methylpentyl)-3-chloro-2-methylquinolin-6-yl)pyrimidin-2-yl)propan-2-ol]",≤ 25 µM,–
"CC(C)(O)c1ncc(-c2ccc3ncc(Cl)c(NC(CC(F)(F)F)c4ccccc4F)c3c2)cn1 (racemic) [Example 169, 2-(5-(3-chloro-4-((3,3,3-trifluoro-1-(2-fluorophenyl)propyl)amino)quinolin-6-yl)pyrimidin-2-yl)propan-2-ol]",≤ 25 µM,–
"CC(C)(O)c1ncc(-c2nc3c(N[C@@H](c4ccccc4F)C(F)F)c(Cl)cnc3cc2F)cn1 [Example 207, (S)-2-(5-(7-chloro-8-((2,2-difluoro-1-(2-fluorophenyl)ethyl)amino)-3-fluoro-1,5-naphthyridin-2-yl)pyrimidin-2-yl)propan-2-ol]",≤ 25 µM,–
"Cc1nc2ccc(-c3cnc(C(C)(C)O)nc3)cc2c(N[C@H](C)c2cccc(C#N)c2)c1Cl [Example 386, (R)-3-(1-((3-chloro-6-(2-(2-hydroxypropan-2-yl)pyrimidin-5-yl)-2-methylquinolin-4-yl)amino)ethyl)benzonitrile]",≤ 25 µM,–
"COc1ccccc1-c1ccc(F)c([C@@H](C)Nc2c(Cl)cnc3ccccc23)c1 [Example 549, (R)-3-chloro-N-(1-(4-fluoro-2′-methoxy-[1,1′-biphenyl]-3-yl)ethyl)quinolin-4-amine]",≤ 25 µM,–

Structure (SMILES),IC50 [1],"IC50 (read-out: IC50 values measured in the TNF induced HEK-Blue assay; TNFα 0.5 ng/mL, HEK-Blue-CD40L cells, 18 h)"
"C[C@@H](Nc1c(Cl)cnc2ccc(-c3cnc(C(C)(C)O)nc3)cc12)c1cc(-c2cnccn2)ccc1F [Example 341, (R)-2-(5-(3-chloro-4-((1-(2-fluoro-5-(pyrazin-2-yl)phenyl)ethyl)amino)quinolin-6-yl)pyrimidin-2-yl)propan-2-ol]",≤ 25 µM,–
"Cc1nc2ccccc2c(N[C@H](C)c2cc(Br)ccc2F)c1Cl [Example 538, (R)—N-(1-(5-bromo-2-fluorophenyl)ethyl)-3-chloro-2-methylquinolin-4-amine]",≤ 25 µM,–
"COC(=O)C1CCN(c2ncc(-c3cc4c(N[C@H](C)c5ccccc5F)c(Cl)cnc4cc3F)cn2)C1 (mixture of isomers) [Example 281, methyl 1-(5-(3-chloro-7-fluoro-4-(((R)-1-(2-fluorophenyl)ethyl)amino)quinolin-6-yl)pyrimidin-2-yl)pyrrolidine-3-carboxylate]",≤ 25 µM,–
"Cc1nc2cc(F)c(-c3cnc(C(C)(C)O)nc3)cc2c(N[C@H](C)c2cc(CC(N)=O)ccc2F)c1Cl [Example 554, (R)-2-(3-(1-((3-chloro-7-fluoro-6-(2-(2-hydroxypropan-2-yl)pyrimidin-5-yl)-2-methylquinolin-4-yl)amino)ethyl)-4-fluorophenyl)acetamide]",≤ 25 µM,–
"Cc1nc2cc(F)c(-c3cnc(C(C)(C)O)nc3)cc2c(N[C@H](C)c2cc(CCC(N)=O)ccc2F)c1Cl [Example 445, (R)-3-(3-(1-((3-chloro-7-fluoro-6-(2-(2-hydroxypropan-2-yl)pyrimidin-5-yl)-2-methylquinolin-4-yl)amino)ethyl)-4-fluorophenyl)propanamide]",≤ 25 µM,–
"Cc1ccc(C)c(Nc2c(Cl)c(C)nc3ccc(-c4ccc(C(=O)O)nc4)cc23)c1 [Example 9, 5-(3-chloro-4-((2,5-dimethylphenyl)amino)-2-methylquinolin-6-yl)picolinic acid]",≤ 25 µM,–
"C[C@@H](Nc1c(Cl)cnc2ccc(-c3ccc(C(O)(CF)CF)cc3)cc12)c1ccccc1F [Example 117, (R)-2-(4-(3-chloro-4-((1-(2-fluorophenyl)ethyl)amino)quinolin-6-yl)phenyl)-1,3-difluoropropan-2-ol]",≤ 25 µM,–
"C[C@@H](Nc1c(Cl)cnc2ccccc12)c1cc(-c2ccc(C#N)nc2)ccc1F [Example 514, (R)-5-(3-(1-((3-chloroquinolin-4-yl)amino)ethyl)-4-fluorophenyl)picolinonitrile]",≤ 25 µM,–
"CC1=C(CC(C)Nc2c(Cl)cnc3ccc(-c4cnc(C(C)(C)O)nc4)cc23)CCC1(C)C (racemic) [Example 134, 2-(5-(3-chloro-4-((1-(2,3,3-trimethylcyclopent-1-en-1-yl)propan-2-yl)amino)quinolin-6-yl)pyrimidin-2-yl) propan-2-ol]",≤ 25 µM,–
"Cc1ccc(-c2ccc(F)c([C@@H](C)Nc3c(Cl)cnc4ccccc34)c2)cn1 [Example 518, (R)-3-chloro-N-(1-(2-fluoro-5-(6-methylpyridin-3-yl)phenyl)ethyl)quinolin-4-amine]",≤ 25 µM,–
"C[C@@H](Nc1c(Cl)cnc2ccc(-c3cnc(N4CCN([C@@H](CN)C(=O)O)CC4)nc3)cc12)c1ccccc1F [Example 94, (S)-3-amino-2-(4-(5-(3-chloro-4-(((R)-1-(2-fluorophenyl)ethyl)amino)quinolin-6-yl)pyrimidin-2-yl)piperazin-1-yl)propanoic acid]",≤ 25 µM,–
"C[C@@H](Nc1c(Cl)cnc2ccc(-c3ccc(N4CCO[C@@H](CO)C4)nc3)cc12)c1ccccc1F [Example 83, ((R)-4-(5-(3-chloro-4-(((R)-1-(2-fluorophenyl)ethyl)amino)quinolin-6-yl)pyridin-2-yl)morpholin-2-yl)methanol]",≤ 25 µM,–
"O=C(O)CC1CCN(c2ncc(-c3ccc4ncc(Cl)c(N[C@@H](c5ccccc5F)C(F)F)c4c3)cn2)CC1 [Example 78, (S)-2-(1-(5-(3-chloro-4-((2,2-difluoro-1-(2-fluorophenyl)ethyl)amino)quinolin-6-yl)pyrimidin-2-yl)piperidin-4-yl)acetic acid]",≤ 25 µM,–
"Cc1nc2ccccc2c(N[C@H](C)c2cc(-c3cccnc3)ccc2F)c1Cl [Example 531, (R)-3-chloro-N-(1-(2-fluoro-5-(pyridin-3-yl)phenyl)ethyl)-2-methylquinolin-4-amine]",≤ 25 µM,–
"C[C@@H](Nc1c(Cl)cnc2ccccc12)c1cc(-c2ccccc2C#N)ccc1F [Example 552, (R)-3′-(1-((3-chloroquinolin-4-yl)amino)ethyl)-4′-fluoro-[1,1′-biphenyl]-2-carbonitrile]",≤ 25 µM,–
"CC(Nc1c(Cl)cnc2cc(F)c(-c3cnc(C(C)(O)CO)nc3)cc12)c1ccccc1F (centres unmarked) [Example 254, 2-(5-(3-chloro-7-fluoro-4-((1-(2-fluorophenyl)ethyl)amino)quinolin-6-yl)pyrimidin-2-yl)propane-1,2-diol]",≤ 25 µM,–

# Reference: patent US10865191B2, “Heterocyclic compounds useful as modulators of TNF alpha” (BRISTOL-MYERS SQUIBB COMPANY, priority 2015, dated 2020)
